Values quoted from earlier work in patent US9241922B2, “Pharmaceutical solution of taxanes comprising pH regulator and preparation method thereof” (Tasly Holding Group Co., Ltd., priority 2009, dated 2016).

Details: background statement

In the case of `CC(=O)O[C@@]12CO[C@@H]1C[C@H](O)[C@@]1(C)C(=O)[C@H](O)C3=C(C)[C@@H](OC(=O)[C@H](O)[C@@H](NC(=O)OC(C)(C)C)c4ccccc4)C[C@@](O)([C@@H](OC(=O)c4ccccc4)[C@H]21)C3(C)C` [docetaxel], the water-solubility is given as “about 4 μg/ml”.

In the case of `CC(=O)O[C@H]1C(=O)[C@@]2(C)[C@H]([C@H](OC(=O)c3ccccc3)[C@]3(O)C[C@H](OC(=O)[C@H](O)[C@@H](NC(=O)c4ccccc4)c4ccccc4)C(C)=C1C3(C)C)[C@]1(OC(C)=O)CO[C@@H]1C[C@@H]2O` [paclitaxel], the water-solubility is listed as “about 4 μg/ml”.
